Article PMC6120983, “Chimeric Proteins Containing MAP-1 and Functional Domains of C4b-Binding Protein Reveal Strong Complement Inhibitory Capacities” (Frontiers in Immunology, 2018)
These are yes or no findings as the source states them, for the method shown.

Protein sequences, listed by entry. Tags and fused reporters are not part of them. Residues count along the entry.
UniProt P11226, residues 21-248: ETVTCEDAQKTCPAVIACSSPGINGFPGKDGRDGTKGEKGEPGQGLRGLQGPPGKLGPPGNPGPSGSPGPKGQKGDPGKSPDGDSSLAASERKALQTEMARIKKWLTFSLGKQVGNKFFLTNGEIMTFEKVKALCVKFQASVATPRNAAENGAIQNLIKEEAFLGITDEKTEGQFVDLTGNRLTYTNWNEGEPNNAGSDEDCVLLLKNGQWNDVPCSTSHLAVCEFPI
UniProt Q9BWP8, residues 26-271: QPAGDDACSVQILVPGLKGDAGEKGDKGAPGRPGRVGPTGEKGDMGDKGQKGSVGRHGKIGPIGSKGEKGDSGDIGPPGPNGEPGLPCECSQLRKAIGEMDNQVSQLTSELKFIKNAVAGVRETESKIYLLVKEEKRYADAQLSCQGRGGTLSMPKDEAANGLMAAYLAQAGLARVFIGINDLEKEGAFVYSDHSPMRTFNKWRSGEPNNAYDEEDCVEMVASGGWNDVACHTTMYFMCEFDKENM

Assays:
recombinant MBL = recombinant MBL (UniProt P11226 21-248); assay: ELISA; as a1 but in TBS/Tween/EDTA (10 mM EDTA); both purified
recombinant CL-11 = target: T1, recombinant CL-11 (UniProt Q9BWP8 26-271); assay: as above
T1 construct: collectin-11 (CL-11, CL-K1); Held on mannan-coated wells in the ELISA; also called rCL-11; collectin-11; source: produced in house

B1: recombinant MAP-1 (natural protein, human, UniProt P48740-3 20-380, looked up)
chain: HTVELNNMFGQIQSPGYPDSYPSDSEVTWNITVPDGFRIKLYFMHFNLESSYLCEYDYVKVETEDQVLATFCGRETTDTEQTPGQEVVLSPGSFMSITFRSDFSNEERFTGFDAHYMAVDVDECKEREDEELSCDHYCHNYIGGYYCSCRFGYILHTDNRTCRVECSDNLFTQRTGVITSPDFPNPYPKSSECLYTIELEEGFMVNLQFEDIFDIEDHPEVPCPYDYIKIKVGPKVLGPFCGEKAPEPISTQSHSVLILFHSDNSGENRGWRLSYRAAGNECPELQPPVHGKIEPSQAKYFFKDQVLVSCDTGYKVLKDNVEMDTFQIECLKDGTWSNKIPTCKKNEIDLESELKSEQVTE
binding (recombinant MBL): no binding (condition: with 10 mM EDTA (up to 13.5 nM))
binding (recombinant CL-11): no binding (condition: with 10 mM EDTA (up to 13.5 nM))
